No constants are given. Whether binding was seen depends on the method and setting. Binding seen in cells or lysates may run through a third protein. Some results given as binding are weak or reduced against the parent protein; the word gives no strength.
Tests used:
[1] = molecular target: Lck (UniProt P06239); test: co-immunoprecipitation, Western blot against Lck
[2] = molecular target: Lck (UniProt P06239); test: co-immunoprecipitation from 293TM cells with recombinant HER-2 beads, Western blot against Lck, densitometry

Amino acid sequences for entries named in this document (tags omitted).
UniProt P06239: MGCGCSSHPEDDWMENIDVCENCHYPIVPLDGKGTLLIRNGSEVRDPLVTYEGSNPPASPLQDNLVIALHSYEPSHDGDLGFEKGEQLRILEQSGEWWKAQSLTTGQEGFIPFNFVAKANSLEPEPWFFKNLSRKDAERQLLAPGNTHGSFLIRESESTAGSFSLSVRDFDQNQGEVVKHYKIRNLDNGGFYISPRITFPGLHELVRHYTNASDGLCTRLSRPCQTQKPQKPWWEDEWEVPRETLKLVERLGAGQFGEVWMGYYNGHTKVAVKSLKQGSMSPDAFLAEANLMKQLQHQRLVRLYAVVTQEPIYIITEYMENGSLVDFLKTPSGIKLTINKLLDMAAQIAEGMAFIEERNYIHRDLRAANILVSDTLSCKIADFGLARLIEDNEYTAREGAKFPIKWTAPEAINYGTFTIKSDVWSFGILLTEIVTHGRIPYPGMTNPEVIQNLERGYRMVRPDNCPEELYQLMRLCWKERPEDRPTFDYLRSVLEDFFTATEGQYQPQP

B1: Anti-HER-2 DARPin Tri-TAC (full-length Trifunctional T cell-antigen coupler, configuration 1) (protein)
chain: MSRGSDLGKKLLEAARAGQDDEVRILMANGADVNAKDEYGLTPLYLATAHGHLEIVEVLLKNGADVNAVDAIGFTPLHLAAFIGHLEIAEVLLKHGADVNAQDKFGKTAFDISIGNGNEDLAEILQKLNEQKLISEEDLNPGGGGGSGGGGSGGGGSGGGGSGSMDIQMTQTTSSLSASLGDRVTISCRASQDIRNYLNWYQQKPDGTVKLLIYYTSRLHSGVPSKFSGSGSGTDYSLTISNLEQEDIATYFCQQGNTLPWTFAGGTKLEIKGGGGSGGGGSGGGGSGGGGSEVQLQQSGPELVKPGASMKISCKASGYSFTGYTMNWVKQSHGKNLEWMGLINPYKGVSTYNQKFKDKATLTVDKSSSTAYMELLSLTSEDSAVYYCARSGYYGDSDWYFDVWGQGTTLTVFSTSGGGGSLESGQVLLESNIKVLPTWSTPVQPMALIVLGGVAGLLLFIGLGIFFCVRCRHRRRQAERMSQIKRLLSEKKTCQCPHRFQKTCSPI
binding [1]: binds
binding [2]: binds
